These are yes or no findings as the source states them, for the method shown. Binding seen in cells or lysates may run through a third protein. Some entries that bind do so weakly or less than the wild type.
Key:
[1] = target: HCMV pUL50, tagged version (Figure 1) (HCMV) (UniProt P16791); assay: cross-linking + co-IP
[2] = target: HCMV pUL50, tagged version (Figure 1) (HCMV) (UniProt P16791); assay: cross-linking
[3] = target: CDK1-HA (overexpressed) (human) (UniProt P06493); assay: cross-linking + co-IP
[4] = target: CDK1-HA (overexpressed) (human) (UniProt P06493); assay: co-IP

The chains behind the UniProt entries cited, without tags or fusion partners.
UniProt P16791: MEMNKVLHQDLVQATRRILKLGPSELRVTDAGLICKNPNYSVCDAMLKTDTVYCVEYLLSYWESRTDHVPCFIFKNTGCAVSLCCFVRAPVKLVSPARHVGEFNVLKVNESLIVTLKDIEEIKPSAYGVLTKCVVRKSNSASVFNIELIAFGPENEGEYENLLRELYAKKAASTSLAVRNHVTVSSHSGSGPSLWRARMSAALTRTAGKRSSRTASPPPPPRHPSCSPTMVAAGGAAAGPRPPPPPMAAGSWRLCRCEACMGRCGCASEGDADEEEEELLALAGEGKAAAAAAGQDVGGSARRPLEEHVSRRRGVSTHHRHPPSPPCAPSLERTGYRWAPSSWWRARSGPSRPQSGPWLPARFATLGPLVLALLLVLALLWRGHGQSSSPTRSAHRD
UniProt P06493: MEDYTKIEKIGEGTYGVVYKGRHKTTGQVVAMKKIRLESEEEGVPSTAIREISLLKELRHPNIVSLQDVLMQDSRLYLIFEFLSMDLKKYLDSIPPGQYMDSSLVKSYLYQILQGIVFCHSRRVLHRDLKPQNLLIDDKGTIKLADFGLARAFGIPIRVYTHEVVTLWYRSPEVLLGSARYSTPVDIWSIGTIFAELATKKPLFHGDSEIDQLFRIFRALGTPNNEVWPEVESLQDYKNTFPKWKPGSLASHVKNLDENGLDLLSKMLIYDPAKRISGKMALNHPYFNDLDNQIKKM
UniProt P16794: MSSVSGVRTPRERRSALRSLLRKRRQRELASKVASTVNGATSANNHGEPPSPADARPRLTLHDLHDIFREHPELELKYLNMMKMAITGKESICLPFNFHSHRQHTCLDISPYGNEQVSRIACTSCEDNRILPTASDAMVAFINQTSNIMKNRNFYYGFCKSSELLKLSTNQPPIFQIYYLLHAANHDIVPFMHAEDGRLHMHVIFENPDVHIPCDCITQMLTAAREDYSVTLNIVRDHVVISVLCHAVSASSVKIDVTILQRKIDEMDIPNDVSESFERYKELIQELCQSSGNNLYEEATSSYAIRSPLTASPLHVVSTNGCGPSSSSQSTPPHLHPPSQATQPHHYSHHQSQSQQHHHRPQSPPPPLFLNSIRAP

With “HCMV pUL53, tagged version (Figure 1) (from UniProt P16794 1-376)” the binding [1] was “binds” and the binding [2] was “binds”.

In the case of pUL50-V5 (from UniProt P16791 1-397), the binding [3] is reported as “binds”.

pUL53-His (from UniProt P16794 1-376) was tested, and the binding [3] was “binds” and the binding [4] was “binds”.

From publication PMC9146606
